# Results of single-concentration screens

From ChEMBL document CHEMBL3988442, “University of Dundee, Small-Polar-MMV Screening Library” (2021).

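Assay of Toxoplasma gondii numbers, read through their beta-galactosidase reporter with a colour substrate. Compounds at 50 µM. Higher reads as fewer parasites (inferred from which compounds were picked for retests). Size under these conditions: about 18,000 compounds, about 170 of them at 50% or above in at least one test.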

Values are the deposited “Percent Effect”, in %. The controls that fix the scale are not given in the record; negative values are as filed. Compounds were drawn at random from those tested, without regard to their results.

- O=C1NC(=O)c2cc(C(F)(F)F)ccc21 | 0.866%
- CC(CN)c1nc(-c2ccccc2)no1 (configuration not stated) | 10.39%
- O=C(Cn1cnnn1)Nc1cccc(-n2cccc2)c1 | -16.86%
- CCN(CC)CCNC(=O)Nc1cc(C)ccn1 | -7.065%
- NC(=O)CCn1ccc(NC(=O)C2=CCCCCC2)n1 | 2.537%
- c1snnc1CN1CCOCC2(CCOCC2)C1 | 5.761%
- COCC(C)(O)CCN (configuration not stated) | 4.387%
- CCC(C)(N)c1nc(=O)c2c([nH]1)CCC2 (configuration not stated) | 17.55%
- CCC(CNC(=O)Nc1cn[nH]c1)N1CCCC1 (configuration not stated) | 0.08099%
- CC(=O)NCCCc1nc2ccccc2n1C | -0.2926%
- CCNCc1nc(-c2ccccc2)no1 | -6.49%
- CCn1cc(NC(=O)c2ccc(C)n2C)cn1 | 24.43%
- C=C(C)CNC(=O)Nc1cccc(N2CCNC2=O)c1 | -10.21%
- Cc1nc(O)cc(CNC(=O)c2ncc(F)cc2F)n1 | 0.8814%
- CCN1CCN(C(=O)CN2CCCCCCC2=O)CC1 | -20.43%
- NC1CN(S(=O)(=O)c2ccc3c(c2)OCCO3)C1 | 61.03%
- CCSCCC(C)N(C)C(=O)c1ccn(C)c(=O)c1 (configuration not stated) | -4.294%
- COCCc1nncn1C1CCNCC1 | 14.18%
- O=S1(=O)N=C(NCCCn2cccn2)c2ccccc21 | -9.195%
- COCCN1CCC(NC(=O)c2nccnc2N)C1 (configuration not stated) | 6.071%
- O=C(C1CCOCC1)N1CCCC1CN1CCCC1 (configuration not stated) | 25.78%
- NC(=O)C(c1ccccc1)N1CCC2(CC1)OCCO2 (configuration not stated) | 9.286%
- CC1CCCN(CCCNC(=O)c2ccncc2)C1 (configuration not stated) | 4.032%
- NC(=O)COc1cccc(CSc2nnc(N)s2)c1 | -1.703%
- FC(F)Oc1cccc(C2CNCCO2)c1 (configuration not stated) | -8.72%
- NCc1cc(Br)c2c(c1)OCO2 | 33.59%
- CCOC(=O)CNC(=O)N1CCn2cccc2C1C (configuration not stated) | -7.019%
- NC(=O)NCC(=O)Nc1cccc(Cl)c1 | 7.98%
- NCc1cccc(-c2ccncc2)c1 | 2.191%
- CC(C)N(C)C(=O)C(N)c1ccccc1 (configuration not stated) | 0.8767%
- O=C1CCCOc2ccc(F)cc21 | 3.048%
- CN1CCN(C(=O)Cn2ccc3ccc(Br)cc32)CC1 | 22.71%
- CN(CC(N)=O)Cc1cc(=O)c2cccc(Cl)c2[nH]1 | 0.02657%
- CCNC1=C(C(N)=O)S(=O)(=O)c2ccccc21 | 2.543%
- CC1=CC[C@@H]2CN(C(=O)Cn3nc(C)cc3N)C[C@@H]2C1 | 1.696%
- CNC(=O)C1CCCN(c2cccc(F)c2C(C)=O)C1 (configuration not stated) | 14.57%
- CC1CCCN(CCC(=O)Nc2sccc2C(N)=O)C1 (configuration not stated) | -14.15%
- CS(=O)(=O)N1CCC(O)c2ccccc21 (configuration not stated) | -12.55%
- Oc1ccc2ccccc2c1CNn1cnnc1 | -5.458%
- COC(CNC(=O)N1CCSCC1)c1ccc(F)cc1 (configuration not stated) | 10.51%
- Nc1ccnn1Cc1ccccn1 | -24.54%
- CCCn1nnc(NCc2ccc(OC)cc2)n1 | 1.515%
- CNc1cc(CN(C)Cc2ccco2)ccn1 | 0.5831%
- CCCC1SCCN1C(=O)c1ccc2nnnn2c1 (configuration not stated) | -2.923%
- CS(=O)(=O)CCS(=O)(=O)CC=Cc1ccccc1 | -20.78%
- O=C(CSCc1ccccc1Cl)N1CCOCC(O)C1 (configuration not stated) | 5.266%
- Cn1cccc1C(=O)NCC(C)(O)c1cccs1 (configuration not stated) | -5.539%

3 of the entries, repeated:

{"smiles": "CCN(CC)CCNC(=O)Nc1cc(C)ccn1", "Percent Effect": -7.065}
{"smiles": "CCNC1=C(C(N)=O)S(=O)(=O)c2ccccc21", "Percent Effect": 2.543}
{"smiles": "CCSCCC(C)N(C)C(=O)c1ccn(C)c(=O)c1", "stereo": "configuration not stated", "Percent Effect": -4.294}